The results in this text go back to patent US20170158755A1.

These are yes or no findings as the source states them, for the method shown. A result given as binding can be weak or reduced; the word gives no strength.

The experiment deals with LAMA4. In words: ForteBio biolayer interferometry; antibody constant at 100 nM, LAMA4 at 3.125-200 nM. For orientation: In BLI a coated tip is dipped into the sample, and binding shifts an interference pattern.

B1: mouse monoclonal antibody 19C12 (antibody, V domains shown)
VH: QVQLQQSGAELVKPGASVKISCKASGYAFSTYWMNWVKQRPGEGLEWIGQIYPGDGDTNYNGKFKGKATLTADKSSSTAYMQLSSLTSEDSAVYFCARSDGYYDYWGQGTTLTVSS
VL: NIVLTQSPASLAVSLGQRATISCRASESVDSYGTSFMHWYQQKPGQPPKLLICLASSLESGVPARFSGSGSRTDFTLTIDPVEADDAATYYCQQNNEDPPTFGAGTKLELKR
Consider B1, for which the binding result is “binds”.

B2: mouse monoclonal antibody 1C1 (antibody, V domains shown)
VH: QVQLQQSGAELARPGASVKLSCKASGYTFTNYGISWVKQRTGQGLEWIGAIYPRSGNTYYNEKFKGKATLTADKSSSTAYMELRSLTSEDSAVYFCARERDYGSSYALDYWGQGTSVTVSS
VL: DIVMTQSQKFMSTSVGDRVSVTCKASHNVGTNVAWYQQKPGQSPKPLIYSASYRYSGVPDRFTGSGSGTDFTLTISNVQSEDLADYFCQQFNNYPYTFGGGTKLEIKR
Take B2: the binding entry is reported as “binds”.
